No constants are given. Whether binding was seen depends on the method and setting. Some results given as binding are weak or reduced against the parent protein; the word gives no strength.

Amino acid sequences for entries named in this document (tags omitted). Residues count along the entry.
UniProt Q9BQB4, residues 24-213: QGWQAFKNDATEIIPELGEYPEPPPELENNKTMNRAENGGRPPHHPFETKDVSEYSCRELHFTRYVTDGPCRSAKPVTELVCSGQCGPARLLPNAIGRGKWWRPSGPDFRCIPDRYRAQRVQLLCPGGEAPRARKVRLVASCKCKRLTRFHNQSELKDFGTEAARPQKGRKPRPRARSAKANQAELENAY

This assay deals with human sclerostin with a Flag tag (h-SOST-Flag) (human) (UniProt Q9BQB4). The assay is described as follows: binding ELISA (Test Example 1). In general terms: ELISA stands for enzyme-linked immunosorbent assay.

B1: murine anti-human sclerostin monoclonal antibody Ab-1 (antibody, V domains shown)
VH: EVQLQQSGPELVKPGTSVKIPCQTSGYTFTDYNLDWLKQRPGESLEWIGDIDPNNGDILYNQKFRDKATLTVDTSSNTAYLELRSLTSEDTAVYYCARRWAYYFDYWGQGTTLTISS
VL: NIVMTQTPKLLFVSAGDRITITCKASQSVSNDVAWYQQKPGQSPKLLIYYTSNRFTGVPDRFTGSGYGTDFTLTINTVQAEDLAVYFCQQDYSSPVTFGAGTKLELK
Consider B1, for which the binding result is “binds”.
